Test results as given in the supplement of paper PMC10849652.
This is one part of the list.

Amino acid sequences for entries named in this document (tags omitted). A change or cut given only in a name is not applied to a line headed by its entry.
UniProt Q13625: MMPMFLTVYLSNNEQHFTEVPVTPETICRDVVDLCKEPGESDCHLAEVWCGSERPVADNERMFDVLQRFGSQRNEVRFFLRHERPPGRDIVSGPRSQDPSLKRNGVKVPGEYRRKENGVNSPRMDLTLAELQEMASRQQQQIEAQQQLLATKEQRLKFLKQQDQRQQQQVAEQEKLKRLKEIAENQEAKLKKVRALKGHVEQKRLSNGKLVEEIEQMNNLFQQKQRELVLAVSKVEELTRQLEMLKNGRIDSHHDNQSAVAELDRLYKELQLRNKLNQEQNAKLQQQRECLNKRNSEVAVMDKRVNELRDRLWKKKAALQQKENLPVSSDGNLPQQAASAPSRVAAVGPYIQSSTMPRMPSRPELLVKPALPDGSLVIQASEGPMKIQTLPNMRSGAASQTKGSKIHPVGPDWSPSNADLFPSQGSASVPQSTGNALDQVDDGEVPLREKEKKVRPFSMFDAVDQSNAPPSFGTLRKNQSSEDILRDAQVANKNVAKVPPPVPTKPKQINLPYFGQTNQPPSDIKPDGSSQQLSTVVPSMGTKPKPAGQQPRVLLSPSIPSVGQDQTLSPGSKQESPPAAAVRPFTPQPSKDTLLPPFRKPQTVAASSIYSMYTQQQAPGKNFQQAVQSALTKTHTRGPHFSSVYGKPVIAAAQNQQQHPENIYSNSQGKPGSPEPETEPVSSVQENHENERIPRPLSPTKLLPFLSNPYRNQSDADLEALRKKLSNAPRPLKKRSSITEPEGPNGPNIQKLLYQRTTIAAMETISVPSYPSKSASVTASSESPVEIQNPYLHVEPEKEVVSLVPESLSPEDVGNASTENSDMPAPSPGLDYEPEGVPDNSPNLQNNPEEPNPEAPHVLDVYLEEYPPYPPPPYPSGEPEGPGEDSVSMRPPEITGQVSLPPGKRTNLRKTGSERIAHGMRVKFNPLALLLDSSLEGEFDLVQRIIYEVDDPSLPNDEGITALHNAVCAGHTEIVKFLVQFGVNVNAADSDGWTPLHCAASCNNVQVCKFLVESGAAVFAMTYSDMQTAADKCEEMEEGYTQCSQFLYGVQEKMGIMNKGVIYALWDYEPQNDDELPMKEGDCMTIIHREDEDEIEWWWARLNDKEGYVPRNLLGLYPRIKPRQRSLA
UniProt Q9P0T7: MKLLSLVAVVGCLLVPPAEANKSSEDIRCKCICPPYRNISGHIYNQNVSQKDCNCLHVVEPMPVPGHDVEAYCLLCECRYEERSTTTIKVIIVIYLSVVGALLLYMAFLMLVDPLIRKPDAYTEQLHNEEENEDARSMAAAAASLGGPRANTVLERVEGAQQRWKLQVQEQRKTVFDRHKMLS
UniProt Q9H1E5: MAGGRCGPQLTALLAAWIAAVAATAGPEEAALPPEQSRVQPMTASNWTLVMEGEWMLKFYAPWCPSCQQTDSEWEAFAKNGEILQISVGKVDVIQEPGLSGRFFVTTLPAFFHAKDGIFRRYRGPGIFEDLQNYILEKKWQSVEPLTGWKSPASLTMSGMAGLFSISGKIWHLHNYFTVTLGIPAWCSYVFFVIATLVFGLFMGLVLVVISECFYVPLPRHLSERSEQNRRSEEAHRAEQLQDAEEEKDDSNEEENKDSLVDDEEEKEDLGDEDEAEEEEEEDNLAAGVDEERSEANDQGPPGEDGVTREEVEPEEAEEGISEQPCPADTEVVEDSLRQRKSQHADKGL
UniProt Q6NUQ4: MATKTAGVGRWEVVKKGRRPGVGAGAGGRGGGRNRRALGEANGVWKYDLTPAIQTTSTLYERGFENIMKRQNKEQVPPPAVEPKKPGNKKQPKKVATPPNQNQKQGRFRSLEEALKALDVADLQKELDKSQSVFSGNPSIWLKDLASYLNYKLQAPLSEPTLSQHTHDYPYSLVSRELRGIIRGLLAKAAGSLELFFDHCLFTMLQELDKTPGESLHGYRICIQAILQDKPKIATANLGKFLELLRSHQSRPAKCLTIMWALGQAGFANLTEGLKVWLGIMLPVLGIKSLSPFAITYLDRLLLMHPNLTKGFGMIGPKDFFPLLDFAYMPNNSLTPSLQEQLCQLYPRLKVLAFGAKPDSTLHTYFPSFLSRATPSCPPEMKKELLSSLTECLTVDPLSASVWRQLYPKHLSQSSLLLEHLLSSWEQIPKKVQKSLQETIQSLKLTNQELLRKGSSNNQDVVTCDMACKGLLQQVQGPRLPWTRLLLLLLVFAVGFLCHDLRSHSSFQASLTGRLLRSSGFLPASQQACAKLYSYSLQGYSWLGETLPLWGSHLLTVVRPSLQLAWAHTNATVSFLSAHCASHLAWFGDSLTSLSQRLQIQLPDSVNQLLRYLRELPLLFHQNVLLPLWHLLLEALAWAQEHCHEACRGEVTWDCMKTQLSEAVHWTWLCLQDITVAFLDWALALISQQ
UniProt Q96JJ7: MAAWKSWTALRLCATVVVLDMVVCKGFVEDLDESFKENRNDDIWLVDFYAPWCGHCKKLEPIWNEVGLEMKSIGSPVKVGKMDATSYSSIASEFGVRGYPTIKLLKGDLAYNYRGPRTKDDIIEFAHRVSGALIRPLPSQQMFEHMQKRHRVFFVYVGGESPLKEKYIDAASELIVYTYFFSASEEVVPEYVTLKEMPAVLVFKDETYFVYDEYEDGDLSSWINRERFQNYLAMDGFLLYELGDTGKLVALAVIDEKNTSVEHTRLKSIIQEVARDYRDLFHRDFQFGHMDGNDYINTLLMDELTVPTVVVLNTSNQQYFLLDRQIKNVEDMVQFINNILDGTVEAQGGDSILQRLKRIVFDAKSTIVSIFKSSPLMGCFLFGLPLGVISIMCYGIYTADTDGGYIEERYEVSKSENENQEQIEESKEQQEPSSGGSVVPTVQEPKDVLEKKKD
UniProt Q15388, whole entry, looked up: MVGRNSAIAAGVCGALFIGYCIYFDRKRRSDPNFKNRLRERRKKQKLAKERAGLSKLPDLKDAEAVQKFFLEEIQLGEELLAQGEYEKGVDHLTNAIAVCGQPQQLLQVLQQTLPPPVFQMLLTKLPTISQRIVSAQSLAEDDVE
UniProt Q96S44: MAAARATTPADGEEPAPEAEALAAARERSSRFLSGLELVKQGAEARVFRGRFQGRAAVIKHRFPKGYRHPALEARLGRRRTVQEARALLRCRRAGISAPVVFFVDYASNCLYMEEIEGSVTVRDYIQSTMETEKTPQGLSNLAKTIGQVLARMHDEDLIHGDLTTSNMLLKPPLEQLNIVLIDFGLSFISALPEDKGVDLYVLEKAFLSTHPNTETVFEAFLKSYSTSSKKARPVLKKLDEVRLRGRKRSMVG
UniProt Q96MH6: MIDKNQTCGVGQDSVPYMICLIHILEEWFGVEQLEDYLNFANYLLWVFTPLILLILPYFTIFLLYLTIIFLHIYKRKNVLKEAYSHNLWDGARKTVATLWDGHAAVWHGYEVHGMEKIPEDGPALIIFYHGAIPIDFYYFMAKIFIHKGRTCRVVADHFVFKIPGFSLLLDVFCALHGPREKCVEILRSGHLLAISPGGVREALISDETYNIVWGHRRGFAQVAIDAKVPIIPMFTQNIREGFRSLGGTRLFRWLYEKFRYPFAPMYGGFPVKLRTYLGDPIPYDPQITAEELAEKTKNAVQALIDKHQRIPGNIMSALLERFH
UniProt P06753, whole entry, looked up: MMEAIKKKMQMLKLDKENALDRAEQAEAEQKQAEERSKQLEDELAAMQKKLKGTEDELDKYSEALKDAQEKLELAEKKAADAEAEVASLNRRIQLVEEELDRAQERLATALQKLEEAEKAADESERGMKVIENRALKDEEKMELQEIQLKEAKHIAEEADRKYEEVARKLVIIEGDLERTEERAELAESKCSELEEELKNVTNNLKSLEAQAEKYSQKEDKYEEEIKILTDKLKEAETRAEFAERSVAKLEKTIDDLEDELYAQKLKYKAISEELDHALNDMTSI
UniProt Q9NVV0: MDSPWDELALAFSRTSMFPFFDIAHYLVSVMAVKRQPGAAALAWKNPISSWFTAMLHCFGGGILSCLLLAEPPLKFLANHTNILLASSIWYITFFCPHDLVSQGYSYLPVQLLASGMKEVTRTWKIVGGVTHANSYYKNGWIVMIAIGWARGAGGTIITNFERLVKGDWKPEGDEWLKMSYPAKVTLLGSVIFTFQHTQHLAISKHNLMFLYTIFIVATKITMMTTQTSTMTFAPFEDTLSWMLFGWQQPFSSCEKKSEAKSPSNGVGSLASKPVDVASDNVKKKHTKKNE
UniProt Q9P0U1: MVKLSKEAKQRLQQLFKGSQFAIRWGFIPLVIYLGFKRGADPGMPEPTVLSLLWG
UniProt Q96HV5: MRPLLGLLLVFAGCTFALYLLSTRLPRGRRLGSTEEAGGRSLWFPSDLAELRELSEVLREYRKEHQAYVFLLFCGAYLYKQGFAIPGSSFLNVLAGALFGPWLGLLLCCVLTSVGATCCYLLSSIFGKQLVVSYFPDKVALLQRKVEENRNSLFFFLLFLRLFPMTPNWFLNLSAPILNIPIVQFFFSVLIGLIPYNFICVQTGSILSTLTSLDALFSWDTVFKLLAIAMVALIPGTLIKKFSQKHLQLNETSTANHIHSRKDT
UniProt Q16890: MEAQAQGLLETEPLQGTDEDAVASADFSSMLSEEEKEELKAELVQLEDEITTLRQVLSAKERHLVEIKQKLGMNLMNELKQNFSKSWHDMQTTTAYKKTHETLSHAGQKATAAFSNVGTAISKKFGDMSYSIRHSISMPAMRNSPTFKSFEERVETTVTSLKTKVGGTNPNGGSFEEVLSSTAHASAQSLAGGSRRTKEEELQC
UniProt Q9H4I3: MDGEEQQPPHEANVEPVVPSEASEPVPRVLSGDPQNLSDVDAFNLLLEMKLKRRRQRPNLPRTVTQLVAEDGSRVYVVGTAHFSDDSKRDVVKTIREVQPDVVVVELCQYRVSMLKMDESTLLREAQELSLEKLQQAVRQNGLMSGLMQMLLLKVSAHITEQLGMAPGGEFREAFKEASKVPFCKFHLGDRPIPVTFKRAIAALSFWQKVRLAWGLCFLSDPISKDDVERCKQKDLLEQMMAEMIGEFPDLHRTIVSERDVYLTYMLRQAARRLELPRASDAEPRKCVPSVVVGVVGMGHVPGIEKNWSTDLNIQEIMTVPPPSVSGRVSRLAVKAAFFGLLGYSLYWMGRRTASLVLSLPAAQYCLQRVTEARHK
UniProt Q96K49: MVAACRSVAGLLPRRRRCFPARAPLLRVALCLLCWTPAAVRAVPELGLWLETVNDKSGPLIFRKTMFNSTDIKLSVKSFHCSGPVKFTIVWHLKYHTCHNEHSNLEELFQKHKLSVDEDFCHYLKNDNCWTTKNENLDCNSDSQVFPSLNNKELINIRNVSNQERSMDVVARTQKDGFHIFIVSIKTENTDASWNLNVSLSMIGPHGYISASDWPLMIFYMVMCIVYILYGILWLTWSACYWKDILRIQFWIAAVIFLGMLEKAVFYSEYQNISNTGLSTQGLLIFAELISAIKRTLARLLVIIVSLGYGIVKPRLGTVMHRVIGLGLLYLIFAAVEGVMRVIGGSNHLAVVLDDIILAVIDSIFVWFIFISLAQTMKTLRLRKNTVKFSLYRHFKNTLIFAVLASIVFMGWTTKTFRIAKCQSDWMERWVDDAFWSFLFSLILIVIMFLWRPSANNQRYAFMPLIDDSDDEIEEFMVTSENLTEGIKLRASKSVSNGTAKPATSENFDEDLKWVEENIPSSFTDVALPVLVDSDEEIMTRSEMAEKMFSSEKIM
UniProt Q9ULW0, whole entry, looked up: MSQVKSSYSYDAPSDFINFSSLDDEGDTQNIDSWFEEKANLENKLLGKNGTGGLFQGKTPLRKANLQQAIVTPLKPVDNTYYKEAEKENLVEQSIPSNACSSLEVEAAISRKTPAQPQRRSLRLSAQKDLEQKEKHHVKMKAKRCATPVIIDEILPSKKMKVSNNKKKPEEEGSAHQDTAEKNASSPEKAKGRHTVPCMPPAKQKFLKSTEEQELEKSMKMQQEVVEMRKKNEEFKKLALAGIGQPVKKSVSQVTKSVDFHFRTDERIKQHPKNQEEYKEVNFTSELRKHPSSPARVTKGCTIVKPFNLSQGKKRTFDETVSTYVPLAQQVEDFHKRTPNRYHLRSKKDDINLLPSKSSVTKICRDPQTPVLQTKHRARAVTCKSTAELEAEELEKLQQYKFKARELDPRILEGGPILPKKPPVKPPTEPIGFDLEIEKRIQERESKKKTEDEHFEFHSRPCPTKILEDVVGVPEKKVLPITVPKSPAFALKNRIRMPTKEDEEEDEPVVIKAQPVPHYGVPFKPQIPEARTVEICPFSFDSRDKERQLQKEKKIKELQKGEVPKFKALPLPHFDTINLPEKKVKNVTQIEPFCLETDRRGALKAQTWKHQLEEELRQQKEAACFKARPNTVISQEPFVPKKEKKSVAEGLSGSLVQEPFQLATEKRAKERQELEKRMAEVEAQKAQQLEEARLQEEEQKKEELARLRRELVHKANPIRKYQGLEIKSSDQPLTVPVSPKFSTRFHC
UniProt Q86XT9, whole entry, looked up: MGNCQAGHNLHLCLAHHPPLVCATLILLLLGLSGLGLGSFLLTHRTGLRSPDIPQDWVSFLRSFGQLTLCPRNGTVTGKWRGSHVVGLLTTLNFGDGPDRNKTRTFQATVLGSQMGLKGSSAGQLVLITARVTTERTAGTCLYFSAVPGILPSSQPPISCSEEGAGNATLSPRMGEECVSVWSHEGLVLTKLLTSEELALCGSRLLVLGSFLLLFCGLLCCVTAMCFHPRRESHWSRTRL

Compound: O=C1NC(=O)C(c2cnc3ccccn23)=C1c1cn2c3c(cc(F)cc13)CN(C(=O)N1CCCCC1)CC2
Test: log2 fold change, soluble protein after heating vs DMSO (PISA); higher = thermal stabilisation; K562 lysate, 10 uM; active = over 0.2 and 3.5 SD of the protein, either way, in both replicates (recomputed)
Summary of the method: (§1)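 Following dounce homogenisation of K562 pellets in PBS pH 7.4 with 1 mM MgCl2, crude extract at 1 mg/mL protein was incubated for 30 min with 10 μM compound. Aliquots were then heated for 3 min over 48°C-58°C and pooled, NP-40 was added to 0.5% at 4°C, and soluble protein was recovered as the supernatant at 21,000xg for 90 min. Channel-sum-equalised TMTpro 16plex LC-MS/MS quantified this protein. Each value, from duplicates, is a log-two fold change in thermal stability relative to solvent controls.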

log2 fold change, inactive:
TMEM63B (UniProt Q5T3F8) 0.001, TP53BP2 isoform 3 (UniProt Q13625) 0.018, TNNI3K isoform 1 (UniProt Q59H18) 0.118, TMEM259 (UniProt Q4ZIN3) 0.004, TMEM35B (UniProt Q8NCS4) 0.074, TMUB2 (UniProt Q71RG4) 0.067, TMEM263 (UniProt Q8WUH6) -0.113, TNIP1 (UniProt Q15025) 0.015, TOLLIP (UniProt Q9H0E2) 0.115, TMEM9 (UniProt Q9P0T7) 0.002, TMX4 (UniProt Q9H1E5) -0.005, TOE1 (UniProt Q96GM8) 0.002, TMEM214 (UniProt Q6NUQ4) 0.029, TMEM9B (UniProt Q9NQ34) -0.007, TOMM34 (UniProt Q15785) 0, TMEM70 (UniProt Q9BUB7) -0.108

Compound: c1cn2cc(-c3ccc4cn[nH]c4c3)nc(Nc3ccc(N4CCOCC4)cc3)c2n1 [entospletinib]
Test: as above
Summary of the method: as §1

log2 fold change, inactive:
TPM4 isoform 2 (UniProt P67936) 0.02, TMX3 (UniProt Q96JJ7) 0.027, TOMM20 (UniProt Q15388) -0.029, TPM1 (UniProt H7BYY1) 0.008, TP53RK (UniProt Q96S44) 0.031, TMEM205 (UniProt Q6UW68) 0.003, TMEM68 (UniProt Q96MH6) -0.031, TPCN1 isoform 3 (UniProt Q9ULQ1) 0.04, TPM3 isoform 2 (UniProt P06753) -0.029, TPRG1L (UniProt Q5T0D9) -0.13, TMOD2 (UniProt Q9NZR1) -0.011, TMEM43 (UniProt Q9BTV4) -0.041, TNRC6A (UniProt Q8NDV7) 0.022, TMEM38B (UniProt Q9NVV0) -0.055, TOMM7 (UniProt Q9P0U1) -0.004, TMEM41A (UniProt Q96HV5) 0.041, TPST2 (UniProt O60704) 0.016, TPD52L1 (UniProt Q16890) -0.002, TRABD (UniProt Q9H4I3) 0.02, TMEM87B (UniProt Q96K49) -0.097, TPX2 (UniProt Q9ULW0) 0.015, TNKS1BP1 (UniProt Q9C0C2) -0.009, TMEM219 (UniProt Q86XT9) 0.069, TMEM63B (UniProt Q5T3F8) -0.03, TP53BP2 isoform 3 (UniProt Q13625) 0, TNNI3K isoform 1 (UniProt Q59H18) 0.002, TMEM259 (UniProt Q4ZIN3) 0.013, TMUB2 (UniProt Q71RG4) 0.101, TMEM263 (UniProt Q8WUH6) -0.034, TNIP1 (UniProt Q15025) 0.01, TOLLIP (UniProt Q9H0E2) -0.007, TMX4 (UniProt Q9H1E5) -0.06, TOE1 (UniProt Q96GM8) 0.043, TMEM214 (UniProt Q6NUQ4) 0.042, TMEM9B (UniProt Q9NQ34) -0.125, TOMM34 (UniProt Q15785) 0.056, TMEM70 (UniProt Q9BUB7) 0.015
